Laboratory results as given in US20070010458A1, “Drugs for the arthritis treatment” (priority 2002, published 2007).
Some of these results come from one statement about several compounds together.

System: TGF-β type II receptor (TβRII)
Test: TGF-β type II receptor (TβRII) mRNA expression in human articular chondrocytes
Type: cell-based
Conditions: human articular chondrocytes in hypoxia (5% v/v O2), with or without IL-1β, compound 10^−5M, 48 h

CC(=O)Nc1ccc(OC(=O)CCCO[N+](=O)[O-])cc1 [NO-Paracetamol, 4-nitrooxybutanoic acid 4-acetylaminophenylester]
Increase of TβRII (TGF-β type II receptor mRNA): more than 100%
